The campaign covered roughly 31,000 sequences. About 1,400 (4.5%) were called active.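 How the source made its calls: active means median seed-adjusted z-score above 1 or below -1; inactive means the rest.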 The list shows a part of the results.
Test: Novel Modifiers of Survival Motor Neuron (SMN) Protein: Gene Identification via Genome-wide siRNA Screen;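 further: luminescence tracks full-length SMN protein made from the SMN2 reporter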
Conditions: HEK293T SMN2-luciferase reporter, siRNA knockdown, 72 h; actives lie on both sides
Summary of the method: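 Luciferase signal, proportional to full-length SMN made from an SMN2 cDNA reporter in stable HEK293T cells, was read 72 h after siRNA reverse transfection. Values were expressed as MAD scores after non-targeting-control normalization and log10 conversion; seed analysis flagged off-targets.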

Sequence | median seed-adjusted z-score
CAUAGAAGCGGAUACUUAUTT against GALM | inactive: -0.111
AGAUACUGCUCAGCCUUGATT against GUCY2E | inactive: 0.61
CAGCUUGUUUUGAGACUCATT against GFI1B | inactive: 0.154
GGUCAAUGGUGGAAGUUGUTT against PORCN | inactive: 0.214
ACAGCUGCGUGGAUCCCUUTT against F2RL3 | inactive: 0.133
GGGCGAUUCCUGUCUAAGATT against PUM1 | inactive: 0.109
GAAUAUGAGUACCUAGAUUTT against SELPLG | inactive: 0.0378
CAAGCGACAUUGAAGAGUUTT against TYRO3 | inactive: -0.0161
GCCUUAUGUAUGCACAGAATT against HKR1 | inactive: -0.358
CUAUGUCAGUAAAUGAUAUTT against DNAJB4 | inactive: -0.12
GGGACACCUCCAUUACUCATT against DAPK1 | inactive: 0.27
GGAACGUGCGAAGUCUAAATT against ACIN1 | inactive: -0.674
CUGAGACACUCAACAAGUATT against IL8RA | inactive: 0.316
UCAUCAUGCUUAUCGUGGATT against SLC6A20 | inactive: -0.306
GCACGGACCAUGAACUUCATT against GRIN1 | inactive: -0.137
GCUGCUACAGAUUUAUCAATT against CCL7 | inactive: 0.23
CCAUUGGAUUCACUAUGUATT against GRM7 | inactive: 0.389
GUCCUAUACUUUGCACAAUTT against PHF11 | inactive: 0.174
CCUAGAAACGAGUUCCAAATT against LIPJ | inactive: 0.295
CCACUGCUAAGAAAACCAATT against SLC2A10 | inactive: -0.0407
AGCCCGUGAUGUACACGUATT against COL8A1 | inactive: -0.848
GGUUCUAACUACCUCCAGATT against KRT5 | inactive: -0.325
GGAGUGUGAUGAUUCGUGATT against DGKK | inactive: 0

Sequence | median seed-adjusted z-score
GCAUUGAUGAUUUCCGAGATT against PPP1R16A | inactive: 0.322
GUGUAAAACUUGUCAGCGATT against WT1 | inactive: 0.236
CGAGACUACUAAAGAAACATT against DDX18 | inactive: 0.241
CCUUCAAUCAAAAGCCUUATT against DUXA | inactive: 0
GAAGGUCCUGAACAGUUUATT against ZFAT | inactive: -0.183
GCGAUGAUGUGGAACCUUATT against TBC1D9 | inactive: -0.0473
GGACGGCUUUCUGCAAAGATT against GLRA2 | inactive: -0.927
GGAUGAUAUUCUAUCCUUUTT against IPO13 | inactive: 0.612
GGAAAGAAGGCAUAUAAAUTT against ZNF260 | inactive: -0.682
GAGGUACGCUGGUUCUACATT against DDHD1 | inactive: 0
CUUCAUGCAUUUUACGAAATT against POLA1 | inactive: -0.317
GAGCGGUACCGGAAGUUUATT against JMJD1B | inactive: 0.402
GACUAGGAAUAAUAGUAUUTT against RNF166 | inactive: -0.3
GGACACGGGUGUCAUCCUATT against UBASH3A | active: -1.1
CGAUGUGAAUUACUUAGUUTT against EDNRA | inactive: 0.133
CCACCUUCGAUGUUCCCAUTT against HMG20B | inactive: 0.231
CCUGAGCAUUUGGACAAUATT against SALL1 | inactive: -0.526
CUAGACCUUUCAUUAGAUATT against USP3 | inactive: -0.176
GGUCAGAAGUGGCAAUGAATT against FFAR2 | inactive: 0.146
GCAGAUGACUACAACUUUATT against E2F5 | inactive: -0.628
GGCAGUUUUUGAGCCGGAATT against CENTA1 | inactive: -0.555
GAUAGACAUUAGUCCGGUUTT against MRE11A | inactive: 0.0507
GAAGUGUACUGCAAUCCAATT against OFD1 | inactive: 0

Sequence | median seed-adjusted z-score
CAAAGCGGAUGGUUACCAATT against YME1L1 | inactive: 0.131
GCUCCUAGGUCAGACCAGATT against NPPA | inactive: -0.897
CAGUGUUCGUCAAAGUCAATT against FN3K | inactive: -0.508
GAUCCUGGCUAAGAGGGAATT against PPP1R14D | inactive: 0
GCCUGUCCCACUUUGAGUATT against TNK2 | inactive: -0.574
GGAAGAAGCUCUUCGGAAATT against PAPD5 | inactive: 0.325
GAUAAACGCAGGGCACAAATT against KCND3 | inactive: 0.282
GCACAGAUGAAGCCCGCUUTT against ARL11 | active: 1
GGAUCGAUUUUUACAGGUUTT against CCNB2 | inactive: 0.0328
GUAUAUGACUGUACACUCATT against AGPAT4 | inactive: 0.149
AGACUAUGCUCAUCACCGATT against HNF1A | inactive: -0.436
CAACCGGACAAGUUCCAAATT against PHF21A | inactive: 0.179
GUGUGAUGAUAUUCGAAAATT against SGPP1 | inactive: 0.0859
CUGCGGUUACUUAAACAUATT against MAPK14 | inactive: 0.142
GGACCGGAUGUUAACCUUUTT against MAPK3 | inactive: -0.573
UCCUGACCGUGACCUUUGATT against PRDM15 | inactive: 0.258
GCAGUGUUCUCCAUACUAUTT against SLC39A2 | inactive: 0.0602
CCGUAUCCCUUGAUACUGATT against PLA2G4A | inactive: 0.608
CCAACUGCAUGAAGUAUAATT against BRPF3 | inactive: -0.615
GGCCUAUAAUGAAUACCCUTT against GLRA1 | inactive: 0
CAUUUAAGCCUUUAGUGAATT against PRKAG2 | inactive: -0.367
GCAGAGGAGUUUACCUACATT against HAGH | inactive: 0.647
CAUUGAGACCUAUCUGCUATT against MYH11 | inactive: 0

5 entries picked at random from those above:
Sequence | median seed-adjusted z-score
CUUCAUGCAUUUUACGAAATT against POLA1 | inactive: -0.317
GUGUGAUGAUAUUCGAAAATT against SGPP1 | inactive: 0.0859
GGGACACCUCCAUUACUCATT against DAPK1 | inactive: 0.27
CCACCUUCGAUGUUCCCAUTT against HMG20B | inactive: 0.231
GGACCGGAUGUUAACCUUUTT against MAPK3 | inactive: -0.573
